{"sequences": {"note": "Amino acid sequences for entries named in this document (tags omitted).", "UniProt P24385": "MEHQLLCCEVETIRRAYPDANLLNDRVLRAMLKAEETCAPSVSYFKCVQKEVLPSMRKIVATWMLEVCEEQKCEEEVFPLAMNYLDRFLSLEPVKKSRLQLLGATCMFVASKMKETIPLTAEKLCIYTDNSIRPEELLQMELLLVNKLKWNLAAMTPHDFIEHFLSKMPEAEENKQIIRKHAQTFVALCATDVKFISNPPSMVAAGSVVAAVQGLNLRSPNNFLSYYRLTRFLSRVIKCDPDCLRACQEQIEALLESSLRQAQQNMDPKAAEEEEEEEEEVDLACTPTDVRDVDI"}, "source": "paper PMC8997160", "target": "T1, GFP-tagged SMYD3 (UniProt Q9H7B4)", "T1 sequence": "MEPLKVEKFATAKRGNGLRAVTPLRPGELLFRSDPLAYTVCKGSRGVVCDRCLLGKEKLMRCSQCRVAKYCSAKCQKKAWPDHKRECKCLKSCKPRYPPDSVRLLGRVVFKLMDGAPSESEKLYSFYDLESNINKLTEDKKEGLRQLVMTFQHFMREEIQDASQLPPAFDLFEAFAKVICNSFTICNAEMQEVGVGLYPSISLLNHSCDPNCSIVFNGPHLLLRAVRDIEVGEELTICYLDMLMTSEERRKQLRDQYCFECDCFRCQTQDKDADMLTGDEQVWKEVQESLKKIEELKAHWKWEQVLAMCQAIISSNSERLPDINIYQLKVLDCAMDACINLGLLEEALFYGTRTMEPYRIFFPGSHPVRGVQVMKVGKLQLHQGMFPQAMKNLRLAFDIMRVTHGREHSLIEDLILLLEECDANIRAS", "experiment": "co-IP; D425 cell lysates (400 µg) from GFP alone and GFP-tagged SMYD3 overexpressing cells bound to GFP-Trap agarose beads; immunoblot for GFP, SMYD3 and cyclin D1", "note": "Results are given in words; binding and its absence hold for the method and conditions named. Binding seen in cells or lysates may run through a third protein. Some results given as binding are weak or reduced against the parent protein; the word gives no strength. Sequences can lack the tags named with a protein."}
{"substance": "cyclin D1 (from UniProt P24385 1-295)", "values": [{"measurement": "binding", "result": "binds"}]}
